In publication PMC7257154 one finds binding data, which are given here for 1 molecule.

The chains behind the UniProt entries cited, without tags or fusion partners.
UniProt Q15796: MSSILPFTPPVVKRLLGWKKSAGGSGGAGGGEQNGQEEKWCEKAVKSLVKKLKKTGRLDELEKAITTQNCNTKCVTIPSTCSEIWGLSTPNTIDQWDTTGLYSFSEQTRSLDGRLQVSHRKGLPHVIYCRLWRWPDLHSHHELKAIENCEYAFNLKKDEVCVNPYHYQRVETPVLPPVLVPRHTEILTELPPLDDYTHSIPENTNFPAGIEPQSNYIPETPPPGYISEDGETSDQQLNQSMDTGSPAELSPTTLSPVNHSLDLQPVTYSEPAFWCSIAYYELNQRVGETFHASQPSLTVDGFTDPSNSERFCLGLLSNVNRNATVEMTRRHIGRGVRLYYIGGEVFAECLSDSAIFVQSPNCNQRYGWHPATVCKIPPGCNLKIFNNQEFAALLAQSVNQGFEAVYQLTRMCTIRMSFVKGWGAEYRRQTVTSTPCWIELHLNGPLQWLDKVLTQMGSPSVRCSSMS

Results are given in words; binding and its absence hold for the method and conditions named. In cells and extracts the contact can be indirect. Some entries that bind do so weakly or less than the wild type. Where a sequence is shown, tags or fusion partners need not be part of it.

The test concerns the target Flag-Smad2 (UniProt Q15796). The experiment in a line: co-IP; lysate of late gastrula Xenopus laevis embryos co-injected with RNA of the Myc-tagged construct and of the Flag-tagged Smad; precipitated with anti-Flag and Dynabeads Protein G, blot with anti-Myc; lysis buffer 150 mM NaCl, 20 mM Tris pH 7.5, 1% Nonidet P-40, 1 mM EDTA; 4 °C overnight; normal rabbit IgG as control.

B1: Myc-Tbx2ΔN (domain or fragment, UniProt B7ZQY8 54-688)
chain: DASLAGAAEAGLHLSALGHHHQAAHLRSLKSLEPEEEVEDDPKVNLEAKELWDQFHKIGTEMVITKSGRRMFPPFKVRVSGLDKKAKYILLMDIVAADDCRYKFHNSRWMVAGKADPEMPKRMYIHPDSPATGEQWMAKPVAFHKLKLTNNISDKHGFTILNSMHKYQPRFHIVRANDILKLPYSTFRTYVFPETDFIAVTAYQNDKITQLKIDNNPFAKGFRDTGNGRREKRKQLSLPSLRMYEEQCKADRDGAESDASSCDPAPGRDSLHSPLSAEPSPLRLHRNNREEKFGADSDQELDRREIRSARSHSPVGHRSPPSSPRLEDRGKDKSTPEKKSDSPESRKDGSDSLFSSIRSLEKDKAESRRKEDSKSDPECGSLSKETFAPLMVQTDSPPHLSASHLQSLALSGLHGQQFFNPLNAGQPLFIHPGQFTMGPGAFSAMGMGHLLASMTGAGALDNGSLSSVQGATGAANPFPFHFSQHMLASQGIPMPAFGGLFPYPYTYMAAAAAAASAMPATSAATTMPRNPFLSSTRPRLRFNPYQIPVGIPPSTNLLTTGLPGSLNPGSESSKPGSSRESSPIPDTPVPKRSHSNSLSPKASMKDSINELQNIQRLVSGLESQREISPGRETPK
Consider B1, for which the binding result is reported as “binds”.
